The values below come from patent US12440519B2 (Iowa State University Research Foundation, Inc., priority 2017, dated 2025).

The data set is described as follows: Recovery from spiked sSIM by UHPLC-ECD.

Molecules are shown by their SMILES. Counter-ions that a name gives are not always drawn.

With `CC(C)NC[C@H](O)c1ccc(O)c(O)c1` [isoproterenol, (−)-Isoproterenol hydrochloride], the “% Agreement” value worked out at 81.00% (1 μg spiked in sSIM), 92.20% (10 μg spiked in sSIM) and 90.63% (100 μg spiked in sSIM). The “Amount Recovered” value (10 μg spiked in sSIM) worked out at 9.22 µg and the “Amount Recovered” value (100 μg spiked in sSIM) amounted to 90.63 µg.
